Experimental data as given in PubChem BioAssay AID248 (DTP/NCI, 2004).
The list does not hold the whole screen: it is rich in T/C values a quarter to a half above the control, in often repeated tests (any T/C) and in doses without a T/C. Further doses and runs are listed elsewhere. T/C gives the treated animals as a percentage of the vehicle group. Some entries give survivors of the animals treated and no T/C: the source holds a T/C of zero for them, seemingly a mark for toxic or unscored doses. Some survivor counts are full or nearly so, which does not show that the dose was tolerated: the source hardly ever lists a survival T/C far under the control, and the zero likely stands for such cases as well. Survivors were counted at the toxicity check, usually on the fifth day, unless a day is given; later deaths do not show. Schedules are NCI's codes, read here as Q, the interval in days (D) or hours (H), X, the number of doses. Some entries hold several experiments; the results are listed from low to high. For survival time, the PubChem record calls one and a half times the control and up active, and a quarter to a half above the control has no call in these data; cut-offs in other NCI protocols can differ.

System: L1210 leukemia ip in BDF1 mice, survival T/C
Test: NCI In Vivo Anticancer Drug Screen. Data for tumor model L1210 Leukemia (intraperitoneal) in B6D2F1 (BDF1) mice
Details: T/C endpoint: mean survival time, higher T/C = longer survival
[1] = dose: 100.0 mg/kg/injection, schedule: Q01DX009 (ip), vehicle: Klucel (hydroxypropylcellulose) (HPC)
[2] = dose: 200.0 mg/kg/injection, schedule: Q01DX009 (ip), vehicle: Klucel (hydroxypropylcellulose) (HPC)
[3] = dose: 400.0 mg/kg/injection, schedule: Q01DX009 (ip), vehicle: Klucel (hydroxypropylcellulose) (HPC)
[4] = dose: 150.0 mg/kg/injection, schedule: Q01DX001 (ip), vehicle: saline
[5] = dose: 300.0 mg/kg/injection, schedule: Q01DX001 (ip), vehicle: saline
[6] = dose: 400.0 mg/kg/injection, schedule: Q04DX003 (ip), vehicle: saline with Tween-80
[7] = dose: 200.0 mg/kg/injection, schedule: Q01DX001 (ip), vehicle: saline
[8] = dose: 400.0 mg/kg/injection, schedule: Q01DX001 (ip), vehicle: saline
[9] = dose: 200.0 mg/kg/injection, schedule: Q04DX003 (ip), vehicle: Klucel (hydroxypropylcellulose) (HPC)
[10] = dose: 100.0 mg/kg/injection, schedule: Q01DX009 (ip), vehicle: water
[11] = dose: 200.0 mg/kg/injection, schedule: Q01DX009 (ip), vehicle: water
[12] = dose: 400.0 mg/kg/injection, schedule: Q01DX009 (ip), vehicle: water
[13] = dose: 200.0 mg/kg/injection, schedule: Q04DX003 (ip), vehicle: saline with Tween-80
[14] = dose: 400.0 mg/kg/injection, schedule: Q04DX003 (ip), vehicle: saline
[15] = dose: 400.0 mg/kg/injection, schedule: Q01DX001 (ip), vehicle: carboxymethylcellulose (CMC)
[16] = dose: 200.0 mg/kg/injection, schedule: Q01DX001 (ip), vehicle: carboxymethylcellulose (CMC)
[17] = dose: 200.0 mg/kg/injection, schedule: Q01DX009 (ip), vehicle: saline
[18] = dose: 400.0 mg/kg/injection, schedule: Q01DX009 (ip), vehicle: saline

SMILES: CCC(CCCN(CC)CCc1ccccc1)OC(=O)c1cc(OC)c(OC)c(OC)c1 (stereo not drawn)
- survivor count (dose: 150.0 mg/kg/injection, schedule: Q01DX009 (ip), vehicle: saline): 0 of 6
- survivor count (dose: 150.0 mg/kg/injection, schedule: Q04DX003 (ip), vehicle: saline): 3 of 4
- survivor count (dose: 300.0 mg/kg/injection, schedule: Q01DX009 (ip), vehicle: saline): 0 of 6
- survivor count (dose: 300.0 mg/kg/injection, schedule: Q04DX003 (ip), vehicle: saline): 0 of 4

SMILES: Clc1ccc(SSC(Cl)(Cl)Cl)cc1
- survivor count [1]: 0 of 6
- survivor count [2]: 4 of 6
- survivor count [3]: 0 of 6

SMILES: Cc1cc([N+](=O)[O-])c2nnnn2c1
- survivor count (dose: 400.0 mg/kg/injection, schedule: Q01DX001 (ip), vehicle: other): 0 of 4

SMILES: CCOP(=O)(OCC)Oc1ccc(S(C)=O)cc1 (stereo not drawn)
- survivor count (dose: 10.0 mg/kg/injection, schedule: Q01DX001 (ip), vehicle: saline): 0 of 6
- survivor count (dose: 20.0 mg/kg/injection, schedule: Q01DX001 (ip), vehicle: saline): 0 of 6
- survivor count (dose: 40.0 mg/kg/injection, schedule: Q01DX001 (ip), vehicle: saline): 0 of 6
- survivor count (dose: 75.0 mg/kg/injection, schedule: Q01DX001 (ip), vehicle: saline): 0 of 6
- survivor count (dose: 80.0 mg/kg/injection, schedule: Q01DX001 (ip), vehicle: saline): 0 of 6
- survivor count [4]: 0 of 6
- survivor count [5]: 0 of 6

SMILES: COC(=O)C(=C(c1ccccc1)c1ccccc1)c1ccccc1
- survivor count [6]: 2 of 3

SMILES: O=C(C[n+]1ccccc1)c1cn(Cc2ccccc2)c2ccccc12
- survivor count (dose: 300.0 mg/kg/injection, schedule: Q01DX001 (ip), vehicle: other): 0 of 6

SMILES: c1ccc(OCCC[P+](c2ccccc2)(c2ccccc2)c2ccccc2)cc1
- survivor count (dose: 100.0 mg/kg/injection, schedule: Q01DX001 (ip), vehicle: saline): 2 of 4
- survivor count [7]: 0 of 4
- survivor count [8]: 0 of 4

SMILES: O=C(Nc1ccc(Cl)cc1)c1cccnc1
- survivor count (dose: 400.0 mg/kg/injection, schedule: Q01DX009 (ip), vehicle: saline with Tween-80): 4 of 6

SMILES: Nc1ccc(C(=O)O)cn1
- survivor count [8]: 2 of 4

SMILES: CC12CCC(O)CC1CCC1C2CCC2(C)C1CC1NC12 (stereo not drawn)
- survivor count (dose: 400.0 mg/kg/injection, schedule: Q01DX001 (sc), vehicle: steroid suspending solution): 3 of 6

SMILES: C=CCc1cc(CNCC(C)O)c(O)c(OC)c1 (stereo not drawn)
- survivor count [9]: 5 of 6

SMILES: O=C1CC(c2c[nH]c3nccnc23)NN1 (stereo not drawn)
- survivor count (dose: 25.0 mg/kg/injection, schedule: Q01DX009 (ip), vehicle: water): 3 of 6
- survivor count (dose: 50.0 mg/kg/injection, schedule: Q01DX009 (ip), vehicle: water): 5 of 6
- survivor count [10]: 6 of 6
- survivor count [11]: 5 of 6
- survivor count [12]: 3 of 6

SMILES: COC(=O)c1ccc(CBr)cc1
- survivor count [13]: 5 of 6

SMILES: O=c1c(Cl)c(C(Cl)(Cl)Cl)[nH]c2c(Cl)cc(Cl)cc12
- survivor count (dose: 25.0 mg/kg/injection, schedule: Q01DX009 (ip), vehicle: other): 0 of 3
- survivor count (dose: 50.0 mg/kg/injection, schedule: Q01DX009 (ip), vehicle: other): 0 of 3
- survivor count (dose: 100.0 mg/kg/injection, schedule: Q01DX009 (ip), vehicle: other): 0 of 3
- survivor count (dose: 200.0 mg/kg/injection, schedule: Q01DX009 (ip), vehicle: other): 0 of 3

SMILES: NC(N)=Nc1ccccc1 (tested in a mixture with another compound)
- survivor count [14]: 1 of 6

SMILES: Nc1cccc(CCCCc2ccccc2)c1
- survivor count (dose: 400.0 mg/kg/injection, schedule: Q01DX001 (ip), vehicle: saline with Tween-80): 1 of 6

SMILES: Nc1nc2nsnc2nc1N
- survivor count [10]: 3 of 6
- survivor count [11]: 1 of 6
- survivor count [12]: 0 of 6

SMILES: CCOC(=O)c1cnc2ccccc2c1Cl
- survivor count [7]: 6 of 6
- survivor count [8]: 6 of 6

SMILES: CCOC(=O)C1(C(C)C)OC2(O)C3CCCN3CC(C(C)C)N2C1=O (stereo not drawn)
- survivor count [13]: 5 of 6
- survivor count [6]: 0 of 6

SMILES: CN(Cc1ccccc1)Cc1cc(CO)ccc1O
- survivor count [15]: 0 of 4

SMILES: Cc1cc(CC#N)c(C)c([N+](=O)[O-])c1
- survivor count (dose: 100.0 mg/kg/injection, schedule: Q04DX003 (ip), vehicle: Klucel (hydroxypropylcellulose) (HPC)): 0 of 3 and 1 of 3
- survivor count [9]: 0 of 3
- survivor count (dose: 400.0 mg/kg/injection, schedule: Q04DX003 (ip), vehicle: Klucel (hydroxypropylcellulose) (HPC)): 0 of 3

SMILES: CC1(C)OC(=O)C(C(=O)O)C1c1ccccc1 (stereo not drawn)
- survivor count [8]: 0 of 6

SMILES: CCCC(=O)N1CCCCC1
- survivor count (dose: 200.0 mg/kg/injection, schedule: Q04DX002 (ip), vehicle: Klucel (hydroxypropylcellulose) (HPC)): 3 of 3
- survivor count (dose: 400.0 mg/kg/injection, schedule: Q04DX002 (ip), vehicle: Klucel (hydroxypropylcellulose) (HPC)): 1 of 3

SMILES: C=C1CC2(CCC3(CC2)CC(=C)C(=O)O3)OC1=O (stereo not drawn)
- survivor count (dose: 100.0 mg/kg/injection, schedule: Q04DX003 (ip), vehicle: saline): 1 of 4
- survivor count (dose: 200.0 mg/kg/injection, schedule: Q04DX003 (ip), vehicle: saline): 0 of 4
- survivor count [14]: 0 of 4

SMILES: CN(CN(C)NC(=O)c1ccccc1)NC(=O)c1ccccc1
- survivor count [16]: 0 of 6
- survivor count [15]: 0 of 6

SMILES: CCOC(=O)C(OC(=O)c1ccccc1)(OC(=O)c1ccccc1)C(=O)OCC
- survivor count [8]: 6 of 6

SMILES: CCCCOP(=O)(OCCCC)N1CCCCC1
- survivor count (dose: 100.0 mg/kg/injection, schedule: Q04DX002 (ip), vehicle: saline with Tween-80): 1 of 3
- survivor count (dose: 200.0 mg/kg/injection, schedule: Q04DX002 (ip), vehicle: saline with Tween-80): 1 of 3
- survivor count (dose: 400.0 mg/kg/injection, schedule: Q04DX002 (ip), vehicle: saline with Tween-80): 0 of 3

SMILES: O=C(O)c1c(O)cc(O)cc1O
- survivor count [6]: 1 of 6

SMILES: CSc1nc2nc(Cl)c(Cl)nc2[nH]1
- T/C (dose: 50.0 mg/kg/injection, schedule: Q01DX009 (ip), vehicle: saline): 126 % of control
- survivor count (dose: 100.0 mg/kg/injection, schedule: Q01DX009 (ip), vehicle: saline): 4 of 6
- survivor count [17]: 3 of 6
- survivor count [18]: 0 of 6

SMILES: CCOC(=O)Nc1cc(NC(C)CCCN(CC)CC)nc2nc(-c3ccc(Cl)cc3)cnc12 (stereo not drawn)
- survivor count [4]: 4 of 6
- survivor count [5]: 0 of 6

SMILES: Cc1cccc(C)c1NC(=S)NC1CC(C)CC(C)(C)C1 (stereo not drawn)
- survivor count [1]: 6 of 6
- survivor count [2]: 6 of 6
- survivor count [3]: 0 of 6

SMILES: [Se]c1ncnc2nc[nH]c12
- survivor count (dose: 100.0 mg/kg/injection, schedule: Q01DX001 (ip), vehicle: carboxymethylcellulose (CMC)): 3 of 6
- survivor count [16]: 0 of 6
- survivor count [15]: 0 of 6

SMILES: CC(C)N(C)C(C)(C)CO
- survivor count (dose: 400.0 mg/kg/injection, schedule: Q04DX003 (ip), vehicle: saline sonified): 1 of 6

SMILES: O=NN(CCCl)C(=O)Nc1cccc2cccnc12
- T/C (dose: 5.0 mg/kg/injection, schedule: Q01DX001 (ip), vehicle: carboxymethylcellulose (CMC)): 142 % of control

SMILES: OCCOc1c(Cl)c(Cl)c(Cl)c(Cl)c1Cl
- survivor count [6]: 0 of 6

SMILES: CC12C=CC(CC1)C2(C)C (stereo not drawn)
- survivor count [18]: 6 of 6

SMILES: NC(=O)Nc1n[nH]c(-c2ccccc2)n1
- survivor count [17]: 6 of 6
- survivor count [18]: 6 of 6
